Reference: PubChem BioAssay AID1259405 (NCATS, 2018)
This is an unselected part of about 50,000 reagents tested. In the full data, about 4,000 (8%) were called active. 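Mouse siRNA library applied to hamster cells; one well for each siRNA.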 Entries without a mark were called inactive. The numbers tell different reagents against one gene apart.

- Screen: 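Mouse-designed siRNAs used to find CHO productivity engineering targets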 (primary screen)
- Cell system: Chinese hamster CHO-K1 ovary cells with stable secreted eGFP expression
- Knock-down reagent: single siRNA against mouse genes, 0.8 pmol siRNA per well (2 µl of 400 nM stock)
- Timing: 3 days
- Measurement: 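Per-well intracellular GFP measured by laser scanning cytometry, plus viability from ATP luminescence, each relative to plate median of non-targeting control wells, in %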
- Scale: GFP, % of control: higher = more GFP per well, higher productivity; viability (ATP), % of control: higher = more viable cells (more ATP)
- Active means: 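Called active when intracellular GFP, relative to negative control, is at or above 120%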

Which result is listed for Cd24a (CD24a antigen) #1?
GFP, % of control: 112; viability (ATP), % of control: 108

What is on record for Cd24a (CD24a antigen) #2?
GFP, % of control: 75.6; viability (ATP), % of control: 81.6

What is on record for Cd24a (CD24a antigen) #3?
GFP, % of control: 95.5; viability (ATP), % of control: 98.1

For Abhd8 (abhydrolase domain containing 8) #1, what does the deposit list?
GFP, % of control: 90.9; viability (ATP), % of control: 75.7

How did the screen score Abhd8 (abhydrolase domain containing 8) #2?
GFP, % of control: 134 (active); viability (ATP), % of control: 132

How did the screen score Abhd8 (abhydrolase domain containing 8) #3?
GFP, % of control: 86.6; viability (ATP), % of control: 95.7

What is on record for Tgm1 (transglutaminase 1, K polypeptide) #1?
GFP, % of control: 80; viability (ATP), % of control: 93.5

For Tgm1 (transglutaminase 1, K polypeptide) #2, what was measured?
GFP, % of control: 85; viability (ATP), % of control: 62.2

With Tgm1 (transglutaminase 1, K polypeptide) #3, what was measured?
GFP, % of control: 112; viability (ATP), % of control: 104

Which result is listed for Muc15 (mucin 15) #1?
GFP, % of control: 64.4; viability (ATP), % of control: 86.8

What did the screen give for Muc15 (mucin 15) #2?
GFP, % of control: 150 (active); viability (ATP), % of control: 73

Which result is listed for Muc15 (mucin 15) #3?
GFP, % of control: 55.2; viability (ATP), % of control: 38.2

Reformatted: results already given
gene knocked down | siRNA no. | GFP, % of control | viability (ATP), % of control
Cd24a (CD24a antigen) | 2 | 75.6 | 81.6
Cd24a (CD24a antigen) | 3 | 95.5 | 98.1
Abhd8 (abhydrolase domain containing 8) | 1 | 90.9 | 75.7
Abhd8 (abhydrolase domain containing 8) | 2 | 134 (active) | 132

Further entries follow.
For Slc6a18 #1, what does the deposit list?
GFP, % of control: 31.4; viability (ATP), % of control: 25.3

For Slc6a18 #2, what does the deposit list?
GFP, % of control: 131 (active); viability (ATP), % of control: 88.1

With Slc6a18 #3, what was measured?
GFP, % of control: 121 (active); viability (ATP), % of control: 77.6

With Cdh6 (cadherin 6) #1, how do the results read?
GFP, % of control: 84.7; viability (ATP), % of control: 82.5

How did the screen score Cdh6 (cadherin 6) #2?
GFP, % of control: 82.1; viability (ATP), % of control: 62

With Cdh6 (cadherin 6) #3, what was measured?
GFP, % of control: 92.3; viability (ATP), % of control: 72

With Zg16 (zymogen granule protein 16) #1, how do the results read?
GFP, % of control: 150 (active); viability (ATP), % of control: 75.1

What did the screen give for Zg16 (zymogen granule protein 16) #2?
GFP, % of control: 83.7; viability (ATP), % of control: 66.9

For Zg16 (zymogen granule protein 16) #3, what was measured?
GFP, % of control: 70.7; viability (ATP), % of control: 75.7

What is on record for Zfp286 (zinc finger protein 286) #1?
GFP, % of control: 116; viability (ATP), % of control: 123

How did the screen score Zfp286 (zinc finger protein 286) #2?
GFP, % of control: 71.3; viability (ATP), % of control: 74.7

What is on record for Zfp286 (zinc finger protein 286) #3?
GFP, % of control: 77.4; viability (ATP), % of control: 78.7

How did the screen score Hdac11 (histone deacetylase 11) #1?
GFP, % of control: 79.5; viability (ATP), % of control: 78.5

For Hdac11 (histone deacetylase 11) #2, what does the deposit list?
GFP, % of control: 81.2; viability (ATP), % of control: 54.3

Which result is listed for H2-Q5 (histocompatibility 2, Q region locus 5) #1?
GFP, % of control: 73; viability (ATP), % of control: 79.5

With H2-Q5 (histocompatibility 2, Q region locus 5) #2, how do the results read?
GFP, % of control: 76.9; viability (ATP), % of control: 79.6

For H2-Q5 (histocompatibility 2, Q region locus 5) #3, what was measured?
GFP, % of control: 107; viability (ATP), % of control: 52.5
